Assay results taken from article PMC5641083, “Blockage of FOXP3 transcription factor dimerization and FOXP3/AML1 interaction inhibits T regulatory cell activity: sequence optimization of a peptide inhibitor” (Oncotarget, 2017).
Results are given in words; binding and its absence hold for the method and conditions named. Some results given as binding are weak or reduced against the parent protein; the word gives no strength.

Sequences of proteins named here, by UniProt entry; tags and fusion partners are left off. Residues count along the entry.
UniProt Q9BZS1, residues 1-417: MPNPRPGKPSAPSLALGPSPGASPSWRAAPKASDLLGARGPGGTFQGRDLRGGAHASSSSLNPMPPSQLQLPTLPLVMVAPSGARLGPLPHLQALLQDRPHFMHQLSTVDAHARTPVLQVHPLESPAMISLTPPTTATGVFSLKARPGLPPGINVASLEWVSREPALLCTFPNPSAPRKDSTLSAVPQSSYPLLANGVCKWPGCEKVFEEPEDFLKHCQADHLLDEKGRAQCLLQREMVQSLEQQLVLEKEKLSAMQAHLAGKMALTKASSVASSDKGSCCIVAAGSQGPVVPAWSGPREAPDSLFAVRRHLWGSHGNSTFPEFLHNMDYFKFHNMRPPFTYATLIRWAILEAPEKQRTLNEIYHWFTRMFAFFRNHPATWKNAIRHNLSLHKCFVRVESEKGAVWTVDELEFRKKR
UniProt Q01196: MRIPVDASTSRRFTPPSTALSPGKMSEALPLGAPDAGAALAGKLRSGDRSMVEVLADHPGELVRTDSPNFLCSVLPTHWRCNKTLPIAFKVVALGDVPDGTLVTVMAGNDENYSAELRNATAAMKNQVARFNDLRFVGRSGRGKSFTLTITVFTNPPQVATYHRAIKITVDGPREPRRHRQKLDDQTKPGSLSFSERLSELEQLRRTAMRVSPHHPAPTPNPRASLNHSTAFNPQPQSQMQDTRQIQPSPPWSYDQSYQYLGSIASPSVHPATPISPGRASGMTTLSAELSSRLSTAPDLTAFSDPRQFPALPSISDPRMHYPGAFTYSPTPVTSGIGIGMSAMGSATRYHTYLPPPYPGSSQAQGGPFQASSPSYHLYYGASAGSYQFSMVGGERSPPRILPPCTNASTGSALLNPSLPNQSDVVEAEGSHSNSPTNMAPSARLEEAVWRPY

Key:
GST-FOXP3 [1] = molecular target: GST-FOXP3 (UniProt Q9BZS1); assay: AlphaScreen or HTRF; cell-free cross titration: FOXP3-6His 1000 to 0 nM against GST-FOXP3 300 to 0 nM; GST-FOXP3 against 6His-AML1; both purified
GST-FOXP3 [2] = molecular target: GST-FOXP3 (UniProt Q9BZS1); assay: AlphaScreen or HTRF; cell-free; GST-FOXP3 at 40 nM and FOXP3-His at 300 nM, or GST-FOXP3 with 6His-AML1, with different concentrations of P60, P60-derived peptides or a control peptide; both purified

- binding (GST-FOXP3 [1]): binds
- binding (GST-FOXP3 [2]): binds
Substance: AML1 protein tagged with 6 His at the N-terminus (from UniProt Q01196 1-453)
